Measured values as given in the supplement of paper PMC4683952.
Some of the results follow. No stated cut-off is given here; in the data, active = 2 or more and inactive = the rest. Single values are uncertain here, since repeats match poorly.

tested on: Lgr5 (MarsCy1-Lgr5-EGFP, U2OS); experiment: cell-surface Lgr5 expression (SCi1 fluorescence, background-subtracted) relative to WT DMSO (fold of DMSO control); higher = more Lgr5 at the plasma membrane; details: U2OS MarsCy1-Lgr5-EGFP stable; treatment time: overnight; library: ActiProbe-5K (TimTec); 25 µM

Row | Structure (SMILES) | cell-surface Lgr5 expression
1 | Cc1cc(N2C(=O)CCC2=O)no1 | inactive: 0.839
2 | COC(=O)c1c(N2C(=O)C=CC2=O)sc(C)c1C | inactive: 1.6
3 | Sc1nnc(Cc2cccc3ccccc23)o1 | active: 2.2
4 | C/C(=N\NC(N)=S)c1ccco1 | inactive: 1.16
5 | CC1CCN(S(=O)(=O)N(C)C)CC1 | inactive: 1.13
6 | CCc1ccc(/C=C(/C#N)C(N)=S)s1 | inactive: 0.911
7 | O=Cc1ccc(S(=O)(=O)[O-])cc1S(=O)(=O)[O-] | inactive: 1.22
8 | COc1ccc(OC)c(Nc2ccc([N+](=O)[O-])cc2[N+](=O)[O-])c1 | inactive: 1.9
9 | O=S(=O)(O/N=C1\CCCc2sc(Cl)cc21)c1ccccc1 | inactive: 1.34
10 | O=S(=O)(Nc1nccs1)c1ccc2ccccc2c1 | inactive: 1.16
11 | O=[N+]([O-])c1ccc(NC2CC(O)C(CO)O2)cc1 (stereo unspecified) | inactive: 1.21
12 | C#CCOc1ccc(/C=C2/NC(=O)NC2=O)cc1Br | inactive: 1.72
13 | OCC1(CO)COC2(CCCCC2)N1 | inactive: 1.21
14 | CCOc1cc2c(cc1OCC)C(C)=NCC2 | inactive: 1.11
15 | O=C(O)c1nsnc1C(O)C(O)C(=O)O (stereo unspecified) | inactive: 1.33
16 | C1CCC(=N/Nc2nc(c(CCCC)c(n2)C)O)/CC1 | inactive: 1.26
17 | Clc1ccc(Nc2nc(C3CC3)cs2)cc1 | inactive: 0.942
18 | O=C1c2cccnc2C(=O)N1c1ccc(Cl)cn1 | inactive: 1.2
19 | CCCSc1nc2c(c(C(F)(F)F)c1C#N)CCCCCC2 | inactive: 1.15
20 | O=S(=O)(Nc1ncccn1)c1ccc(F)cc1 | inactive: 0.931
21 | CC1(C)OC[C@@H]([C@@H]2OC(=O)C(O)=C2O)O1 | inactive: 1.17
22 | CC(C)(C)Sc1ccc(SC(C)(C)C)s1 | inactive: 1.51
23 | C1CCC(C(CC2CCCCN2)C2CCCCC2)CC1.O=C(O)/C=C\C(=O)O (stereo unspecified) | inactive: 0.34

Row | Structure (SMILES) | cell-surface Lgr5 expression
24 | O=S(=O)(Nc1cc(Cl)ccc1Cl)c1ccc(Cl)cc1 | inactive: 1.03
25 | CS(=O)(=O)NC(c1ccccc1)c1ccccc1 | inactive: 1.06
26 | O=C(CCC(=O)NCCC1=CCCCC1)NCCC1=CCCCC1 | inactive: 1.08
27 | CC(C)(C)C1CCc2c(sc3c2C(=O)NC(c2cccs2)N3)C1 (stereo unspecified) | inactive: 0.841
28 | CCS(=O)(=O)Nc1ccc(Cl)cn1 | inactive: 1.08
29 | Sc1nc2ccccc2n1C12CC3CC(CC(C3)C1)C2 | inactive: 1.11
30 | c1(cc(cc(o1)=O)C)/C=C(\Cl)Cl | inactive: 1.39
31 | COc1ccc(/C=N/NC(=O)c2nnn(-c3nonc3N)c2CN2CCCCCC2)cc1CSc1nc2ccccc2o1 | inactive: 1.18
32 | OC1=NC(=N\N=C/c2ccccc2)/S/C1=C/c1ccccc1 | inactive: 1.2
33 | C[N+](C)(CC(=O)c1ccc(Br)cc1)CC12CC3CC(CC(C3)C1)C2 | inactive: 1.03
34 | Cc1ccc(O)c(C2=NOC(O)(C(F)(F)F)C2)c1 (stereo unspecified) | inactive: 1.22
35 | N#CCSc1nc(-c2ccccc2)cc(-c2ccccc2)c1C#N | active: 2.21
36 | N#Cc1c(SCC(=O)C23CC4CC(CC(C4)C2)C3)sc2c(O)cc(=O)[nH]c12 | inactive: 1.28
37 | CN(c1c[nH]c(=O)[nH]c1=O)C1CCCCC1 | inactive: 0.985
38 | CCC(C)NS(=O)(=O)c1c(C)cc(C)cc1C (stereo unspecified) | inactive: 1.02
39 | NC(=O)c1c(N)sc2c1CCCC2 | inactive: 1.25
40 | COc1cc(-c2nc3sc(-c4cc(OC)c(O)c(OC)c4)nc3s2)cc(OC)c1O | inactive: 1.72
41 | Nc1cc([N+](=O)[O-])cc2c1C=Cc1ccccc1O2 | inactive: 1.23
42 | Cc1sc(NC(=O)C2CC2)c(C(N)=O)c1C | inactive: 1.12
43 | CCOC(=O)c1nc(Cn2cc(Br)cn2)no1 | inactive: 1.15
44 | CCN(CC)C(=O)COCC1CCCN2CCCCC12 (stereo unspecified) | inactive: 0.953
45 | [O-]c1n[n+](-c2ccccc2)no1 | inactive: 1.3
46 | O=c1[nH]c2ccccc2c2nnnn12 | inactive: 0.913

Row | Structure (SMILES) | cell-surface Lgr5 expression
47 | N#Cc1c(/N=C\c2cc(Cl)cc(Cl)c2O)sc2c1CCC2 | inactive: 0.983
48 | O=[N+]([O-])c1c(Sc2nnnn2C2CCCCC2)ncnc1Sc1nnnn1C1CCCCC1 | inactive: 1.32
49 | Cn1ccnc1/C=N\Nc1cc(Cl)cc(Cl)c1 | inactive: 1.26
50 | O=c1[nH]nc2[nH]c3ccccc3n2c1=O | inactive: 1.13
51 | CCSc1nc(C2CC2)cc(C(F)(F)F)c1C#N | inactive: 1.2
52 | CCc1nc2sc(C)c(C)c2c(=O)n1N | inactive: 1.03
53 | N#CCN(CC#N)C(=O)c1ccco1 | inactive: 1.03
54 | O=c1oc(-c2cc3ccccc3s2)ns1 | inactive: 1.16
55 | c1(/n(c2cc(Cl)ccc2s1)C)=C(\C#N)C#N | inactive: 1.1
56 | CC1(C)CC(=O)c2sc(NC(=O)C3CC(=O)N(C4CCCCC4)C3)nc2C1 (stereo unspecified) | inactive: 1.24
57 | c1coc(CSCc2ccco2)c1 | inactive: 1.21
58 | O=C(N/N=C\c1ccoc1)C1CCCCC1 | inactive: 1.32
59 | Nc1nc(C(F)(F)F)nn1CC(=O)O | inactive: 1.2
60 | COc1ccc(OC)c(S(=O)(=O)Nc2cc3oc4ccccc4c3cc2OC)c1 | inactive: 1.19
61 | N#Cc1c(NC(=O)C(F)(F)F)sc2c1CCCC2 | inactive: 0.821
62 | O=[N+]([O-])c1ccc(S(=O)Nc2ccc(O)cc2)cc1 (stereo unspecified) | inactive: 1.06
63 | Cc1[nH]nc2c1C1(CCOC1C)C(C#N)=C(N)O2 (stereo unspecified) | inactive: 1.11
64 | C/C=C1\CC(C)(CC)C(C#N)(C#N)C(N)=C1C#N (stereo unspecified) | inactive: 0.936
65 | O=C1NC2(CCCCC2)NC2=C1CCCC2 | inactive: 1.12
66 | Cc1cc(C)c(-c2cc(C(F)(F)F)[nH]n2)c(=O)[nH]1 | inactive: 1.04
67 | O=c1[nH]cnc2sc3c(c12)CCCC3 | inactive: 0.933
68 | O=S(=O)(c1ccccc1)c1cc(O)ccc1O | inactive: 1.33
69 | Cn1c(=O)c2cc(S(=O)(=O)NC3CC3)ccc2n(C)c1=O | inactive: 1.01

Row | Structure (SMILES) | cell-surface Lgr5 expression
70 | CCn1cc(Cl)c(C(=O)NC2=NCCS2)n1 | inactive: 1.32
71 | NC1CCSc2ccccc21 (stereo unspecified) | inactive: 1.19
72 | CC(C)(C1=CC(=O)c2ccccc2C1=O)C1OCC2(CO1)CC1C=CC2C1 (stereo unspecified) | inactive: 0.811
73 | CC(=C/c1ccco1)/C=N/NC(=O)c1ccoc1C | inactive: 1.12
74 | [O-]/[N+](=N/OCc1ccccc1)c1cccc(Br)c1 | inactive: 0.624
75 | CC(=O)[C@H]1C[C@@H](CC#N)C1(C)C | inactive: 0.882
76 | O=C1NC(=O)/C(=C/c2ccc(F)cc2)S1 | inactive: 1.08
77 | OC(CCl)CSc1nc2ccccc2s1 (stereo unspecified) | inactive: 1.03
78 | CN(C)CCSc1nc(-c2ccccc2)nc2c1CCC2 | inactive: 0.892
79 | c1ccc2c(c1)[nH]c1nc3nnnn3nc12 | inactive: 1.12
80 | O=C(O)CCC1=NNC(=O)CC1 | inactive: 1.28
81 | c1ccc2c(c1)-c1ccccc1C2N1CCNCC1 | inactive: 0.957
82 | c1ccc(CN2CCN(Cc3ccccc3)C2c2c[nH]c3ccccc23)cc1 | inactive: 1.17
83 | Fc1ccc(Cn2nc(Cl)nc2Cl)cc1 | inactive: 1.39
84 | COc1nsc2ccc(N)cc12 | inactive: 0.882
85 | Cn1c(COc2ccccc2)nc2ccccc21 | inactive: 0.972
86 | Cn1c(SCc2csc(C3CCCCC3)n2)nc2sc3c(c2c1=O)CCCC3 | inactive: 1.09
87 | N/C(=N\O)C(c1ccccc1)c1ccccc1 | inactive: 1.35
88 | O=C1Nc2ccc(F)cc2/C1=C1/S/C(=N/c2ccccc2)N(c2ccccc2)C1=O | inactive: 1.4
89 | O=C(NC1CCCCCC1)c1ccc(Br)o1 | inactive: 1.24
90 | Cc1ccc(S(=O)(=O)OCC2COC(C)(C)O2)cc1 (stereo unspecified) | inactive: 0.981
91 | CC1(CO)COC(COc2ccccc2)=N1 (stereo unspecified) | inactive: 1.14
92 | Brc1ccc2c(c1)C1Oc3ccc(Br)cc3C(O2)O1 | inactive: 0.971

3 compounds already listed, sorted by molar mass, falling.
Row | Structure (SMILES) | cell-surface Lgr5 expression
72 | CC(C)(C1=CC(=O)c2ccccc2C1=O)C1OCC2(CO1)CC1C=CC2C1 (stereo unspecified) | inactive: 0.811
90 | Cc1ccc(S(=O)(=O)OCC2COC(C)(C)O2)cc1 (stereo unspecified) | inactive: 0.981
81 | c1ccc2c(c1)-c1ccccc1C2N1CCNCC1 | inactive: 0.957

Next part:

Row | Structure (SMILES) | cell-surface Lgr5 expression
93 | O=C1COc2c(Br)cc(Br)cc2O1 | inactive: 1.18
94 | Oc1ccc2cc(Br)ccc2c1Br | inactive: 1.01
95 | Brc1ccc(/C=N/n2cnnc2)cc1 | inactive: 1.3
96 | N#Cc1c(/N=C\c2ccc(Br)s2)sc2c1CCCC2 | inactive: 1.51
97 | CCc1c(C)c(C#N)c2n(c1=O)CC(C)O2 (stereo unspecified) | inactive: 0.932
98 | Clc1cccc(C2CC(c3ccc4ccccc4c3)=NN2c2ccccc2)c1 (stereo unspecified) | inactive: 1.04
99 | O=c1c(/C=N\Cc2ccco2)c(NCc2ccco2)nc2ccccn12 | inactive: 1.05
100 | Cc1nc2c(ccc3nc(C)[nH]c32)[nH]1 | inactive: 1.02
101 | CCCC(C)C(=O)Nc1cc(C)on1 (stereo unspecified) | inactive: 1.01
102 | O=c1nc(NC2CCCCCCCCCCC2)cn[nH]1 | inactive: 1.16
103 | Cn1ccnc1SC/C=C/CSc1nccn1C | inactive: 1.29
104 | S=C(NCC1COc2ccccc2O1)NC1CCCCC1 (stereo unspecified) | inactive: 0.931
105 | CNc1nc2[nH]c(=O)cc(O)c2s1 | inactive: 1.07
106 | CC(=O)NC(C)(C)c1cn(-c2nonc2N)nn1.CC(=O)NC(C)(C)c1cnnn1-c1nonc1N | inactive: 0.825
107 | CC(=O)N/C=C1\C(=O)N(C)C(=O)C(C#N)=C1C | inactive: 1.54
108 | c1coc(CNc2nc3nonc3nc2NCc2ccco2)c1 | inactive: 1.18
109 | O=c1[nH]nc(CSCc2ccc(Cl)cc2)[nH]1 | inactive: 1.41
110 | N#CCCSc1sc2c(O)cc(=O)[nH]c2c1C#N | inactive: 1.13
111 | OC1=C2C(=Nc3ccccc3SC2c2ccccc2)c2ccccc21 (stereo unspecified) | inactive: 1.23

From compound 62 to 63, copied from above:
Row | Structure (SMILES) | cell-surface Lgr5 expression
62 | O=[N+]([O-])c1ccc(S(=O)Nc2ccc(O)cc2)cc1 (stereo unspecified) | inactive: 1.06
63 | Cc1[nH]nc2c1C1(CCOC1C)C(C#N)=C(N)O2 (stereo unspecified) | inactive: 1.11
